These results are taken from PMC11557686.

Amino acid sequences for entries named in this document (tags omitted). A change or cut given only in a name is not applied to a line headed by its entry.
UniProt Q8NBP7: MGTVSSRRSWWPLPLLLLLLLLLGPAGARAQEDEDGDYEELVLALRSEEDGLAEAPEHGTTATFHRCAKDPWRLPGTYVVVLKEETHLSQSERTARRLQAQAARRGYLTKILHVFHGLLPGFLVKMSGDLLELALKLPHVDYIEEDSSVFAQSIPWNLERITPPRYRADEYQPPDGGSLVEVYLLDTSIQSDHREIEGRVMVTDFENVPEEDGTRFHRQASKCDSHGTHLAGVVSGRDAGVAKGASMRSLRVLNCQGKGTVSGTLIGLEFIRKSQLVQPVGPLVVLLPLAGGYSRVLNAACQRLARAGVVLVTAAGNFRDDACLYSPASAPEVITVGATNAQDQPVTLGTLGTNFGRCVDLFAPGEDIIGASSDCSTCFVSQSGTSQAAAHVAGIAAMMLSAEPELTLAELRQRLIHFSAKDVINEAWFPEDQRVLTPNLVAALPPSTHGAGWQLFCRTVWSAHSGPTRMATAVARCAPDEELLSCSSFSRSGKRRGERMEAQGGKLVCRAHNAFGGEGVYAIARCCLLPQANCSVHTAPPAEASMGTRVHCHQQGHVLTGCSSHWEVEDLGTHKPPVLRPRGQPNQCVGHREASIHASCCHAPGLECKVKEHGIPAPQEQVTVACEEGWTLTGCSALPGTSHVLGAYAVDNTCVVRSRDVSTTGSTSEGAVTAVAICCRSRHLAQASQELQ

No constants are given. Whether binding was seen depends on the method and setting. In cells and extracts the contact can be indirect. For some assays here: A result given as binding can be weak or reduced; the word gives no strength. For some assays here: Where a sequence is shown, tags or fusion partners need not be part of it.

Test [1] deals with SP-HA-TMED10 GOLD domain deletion mutant (UniProt P49755). Nature of the test: cross-linking + co-IP; HEK TREx-293 TMED10 KO cells co-transfected; 0.2 mM DSP in PBS with 0.2 mM CaCl2, RT 30 min; lysis in 1.0% Triton X-100, 150 mM NaCl, 2 mM CaCl2, pH 7.5; anti-HA agarose or anti-V5 on Protein G Sepharose; immunoblot. (Immunoblotting shows a protein as a band on a membrane.)
For test [2], the target named is PCSK9-V5 (UniProt Q8NBP7). The test is described as above.

B1: endogenous Cab45 (protein, UniProt Q9BRK5 37-362)
chain: RPANHSSTRERVANREENEILPPDHLNGVKLEMDGHLNRGFHQEVFLGKDLGGFDEDAEPRRSRRKLMVIFSKVDVNTDRKISAKEMQRWIMEKTAEHFQEAMEESKTHFRAVDPDGDGHVSWDEYKVKFLASKGHSEKEVADAIRLNEELKVDEETQEVLENLKDRWYQADSPPADLLLTEEEFLSFLHPEHSRGMLRFMVKEIVRDLDQDGDKQLSVPEFISLPVGTVENQQGQDIDDNWVKDRKKEFEELIDSNHDGIVTAEELESYMDPMNEYNALNEAKQMIAVADENQNHHLEPEEVLKYSEFFTGSKLVDYARSVHEEF
Regarding B1, the binding result in test [1] is listed as “no binding”.

B2: SP-HA-TMED10 WT (protein, UniProt P49755 32-219)
chain: ISFHLPINSRKCLREEIHKDLLVTGAYEISDQSGGAGGLRSHLKITDSAGHILYSKEDATKGKFAFTTEDYDMFEVCFESKGTGRIPDQLVILDMKHGVEAKNYEEIAKVEKLKPLEVELRRLEDLSESIVNDFAYMKKREEEMRDTNESTNTRVLYFSIFSMFCLIGLATWQVFYLRRFFKAKKLIE
Consider B2, for which the binding entry in test [2] is reported as “binds”.
